{
  "source": "PubChem BioAssay AID662",
  "about": "(National Center for Advancing Translational Sciences (NCATS), 2007)",
  "note": "The list shows a part of the results. Shown are side measurements of this screen, not its main read-out; they come without a call. The list favours compounds with an active or inconclusive main result. Words in brackets tell the shape of the fitted curve; partial curves, single points and poor fits give uncertain potencies.",
  "data": [
    {"assay": "Cell signaling CRE-BLA (Fsk stim)", "settings": "CHO CRE-bla reporter (cAMP response element driving beta-lactamase), forskolin EC10, beta-lactamase ratio; measured here: 460 nm blue channel", "outline": "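Modulation of forskolin signalling: compounds in titration series added with EC10 NKH 477 to CHO cells carrying a CRE-driven beta-lactamase reporter, 3 h, 37C. CCF4 FRET ratio (460/530 nm, ex 405 nm) gives %activity and AC50.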", "values": [
      {"molecule": "CCC(c1nnc(SCc2nc3ccccc3s2)n1Cc1ccccc1)N(C)C", "note": "(stereo not drawn)", "AC50": "1.26 µM [falling, partial curve]"},
      {"molecule": "COc1nc(OC)nc(N2CCC(NC(=O)C(Cc3ccc(C(C)C)cc3)NC(C)=O)CC2)n1", "note": "(stereo not drawn)", "AC50": "0.00794 µM [falling, full curve, poor fit]"},
      {"molecule": "CCN(CC)S(=O)(=O)c1ccc(Cl)c(C(=O)NC)c1", "AC50": "0.794 µM [falling, partial curve, poor fit]"},
      {"molecule": "CSCCC(NC(N)=O)C(=O)N(C)CC(=O)Nc1ccc(C)cc1", "note": "(stereo not drawn)", "AC50": "2.51 µM [falling, partial curve, poor fit]"},
      {"molecule": "CCN1CCCC1Cn1c(-c2ccccc2)nc2c(N(CCOC)CCOC)nc(C)nc21", "note": "(stereo not drawn)", "AC50": "10 µM [rising, partial curve]"},
      {"molecule": "N#CCCn1c(=O)c(-c2ccccc2)nc2cnc(N3CCNCC3)nc21", "AC50": "12.6 µM [rising, partial curve]"},
      {"molecule": "CCCOc1cccc(C(=O)Nc2cc(NC(=O)c3ccco3)ccc2OC)c1", "AC50": "12.6 µM [rising, single point]"},
      {"molecule": "CC(C)(C)OC(=O)N1CCC[C@H]1c1nnc(SCc2ccc(Cl)cc2Cl)o1", "AC50": "2 µM [rising, partial curve]"},
      {"molecule": "O=C(Cc1ccc(-n2cccc2)cc1)N1CCc2ccccc21", "AC50": "20 µM [rising, single point]"},
      {"molecule": "COc1ccc(CCNS(=O)(=O)c2ccc3c(c2)CC(C)N3C(C)=O)cc1OC", "note": "(stereo not drawn)", "AC50": "10 µM [rising, single point]"},
      {"molecule": "Cc1nc(N2CCC(C)CC2)c2oc3ccccc3c2n1", "AC50": "10 µM [rising, partial curve]"},
      {"molecule": "COc1ccc(-c2cc(=O)c3c(O)cc(O)cc3o2)cc1", "AC50": "12.6 µM [falling, single point]"},
      {"molecule": "COc1cccc(CN2C(=O)CCC2(C)C(=O)NC2CCCCCC2)c1", "note": "(stereo not drawn)", "AC50": "15.8 µM [falling, partial curve, poor fit]"},
      {"molecule": "Cc1c(Cl)cccc1NC(=O)c1cc(-c2ccc(O)cc2)on1", "AC50": "10 µM [falling, partial curve]"},
      {"molecule": "CC(=O)c1ccc(N2C(=O)C3C(C2=O)C(C(=O)c2ccc(Cl)cc2)N2CCCC32)cc1", "note": "(stereo not drawn)", "AC50": "3.16 µM [falling, single point]"},
      {"molecule": "Cc1ccc(C(=O)N2c3ccc(F)cc3CCC2C)o1", "note": "(stereo not drawn)", "AC50": "10 µM [rising, partial curve]"},
      {"molecule": "Cc1ccc(S(=O)(=O)c2c(N)n(NC(=O)c3ccco3)c3nc4ccccc4nc23)cc1", "AC50": "3.16 µM [rising, full curve, poor fit]"},
      {"molecule": "COc1ccc(-n2nnnc2SCC(=O)Nc2cccc(NC(C)=O)c2)cc1OC", "AC50": "7.94 µM [rising, partial curve]"},
      {"molecule": "CCN(CC)CCCNC(=O)CC1Sc2ccccc2NC1=O", "note": "(stereo not drawn)", "AC50": "0.251 µM [falling, partial curve]"},
      {"molecule": "CCCN(Cc1cc2cc(C)ccc2[nH]c1=O)C(=O)c1cccc(OC)c1", "AC50": "10 µM [rising, partial curve]"},
      {"molecule": "CN(Cc1ccco1)c1cc(-c2cccc(C#N)c2)ncn1", "AC50": "12.6 µM [rising, single point]"},
      {"molecule": "O=c1c(-c2ccccc2)nc2cnc(N3CCOCC3)nc2n1C1CC1", "AC50": "7.94 µM [rising, partial curve]"},
      {"molecule": "CCOC(=O)N1CCN(c2nc(SC)nc3sc4c(c23)CC(C)(C)OC4)CC1", "AC50": "12.6 µM [rising, single point]"},
      {"molecule": "CCOc1ccc2nc(N3CCOCC3)nc(C)c2c1", "AC50": "10 µM [rising, partial curve]"},
      {"molecule": "C/C(=N\\O)C1/C(=N/O)CC2C1C2(C)C", "note": "(stereo not drawn)", "AC50": "0.0251 µM [falling, full curve, poor fit]"},
      {"molecule": "CCc1nnc(NC(=O)CSc2nc3c(cc2C#N)CCC3)s1", "AC50": "0.398 µM [rising, full curve]"},
      {"molecule": "Cc1cc(Nc2ccc(F)c(Cl)c2)n2nc(C)nc2n1", "AC50": "12.6 µM [rising, partial curve]"},
      {"molecule": "O=C(Nc1ccc2c(c1)OCO2)C1CCCN1C(=O)OCc1ccccc1", "note": "(stereo not drawn)", "AC50": "1 µM [falling, partial curve]"},
      {"molecule": "CCNc1ncc2nc(-c3ccc(Cl)cc3)c(=O)n(CCC#N)c2n1", "AC50": "2 µM [rising, full curve]"},
      {"molecule": "CCOC(=O)c1c(N)sc(C(=O)N2CCCC2)c1C", "AC50": "15.8 µM [rising, single point]"},
      {"molecule": "COc1ccc(-n2c(=O)c(CCc3ccccc3)nc3cnc(N4CCOCC4)nc32)cc1", "AC50": "12.6 µM [rising, partial curve]"},
      {"molecule": "CCCCCc1c(C)nc(N2CCOCC2)[nH]c1=O", "AC50": "12.6 µM [rising, single point]"},
      {"molecule": "COc1cc2nc(N3CCN(C(=O)c4ccco4)CC3)nc(N)c2cc1OC", "AC50": "20 µM [rising, partial curve, poor fit]"},
      {"molecule": "O=S(=O)(c1ccc(N2CC=C(c3ccccc3)CC2)nc1)N1CCCC1", "AC50": "20 µM [rising, single point]"},
      {"molecule": "Cc1ccccc1Cn1cc(S(=O)(=O)CC(=O)Nc2nccs2)c2ccccc21", "AC50": "12.6 µM [falling, single point]"},
      {"molecule": "Cc1ccc(OCCn2c(C)c(/C=N/n3cnnc3)c3ccccc32)cc1", "AC50": "1 µM [rising, full curve]"},
      {"molecule": "CC(C)C1C(C#N)=C(N)SC(N)=C1C#N", "AC50": "0.398 µM [rising, full curve]"},
      {"molecule": "CC(=O)O[C@H]1CC[C@@]2(C)[C@@H](CC[C@@]3(C)[C@H]2C(=O)C=C2[C@H]4C[C@](C)(C(=O)OCCN5CCCCC5)CC[C@]4(C)CC[C@@]23C)C1(C)C", "AC50": "12.6 µM [rising, single point]"},
      {"molecule": "Cc1ccc(-c2nc3c(=O)n(C)c4ccccc4c3o2)cc1", "AC50": "2 µM [rising, single point]"},
      {"molecule": "COC(=O)c1ccccc1NC(=O)C12CCC(C)(C(=O)O1)C2(C)C", "note": "(stereo not drawn)", "AC50": "12.6 µM [rising, partial curve]"},
      {"molecule": "COc1cccc(Nc2ncc3nc(C)c(=O)n(C)c3n2)c1", "AC50": "15.8 µM [rising, partial curve, poor fit]"},
      {"molecule": "CC1(C)CC(=O)c2cc(OCC(=O)NCc3cccnc3)ccc2O1", "AC50": "10 µM [rising, single point]"},
      {"molecule": "Cc1cc(C(=O)CSc2nnc(-c3cccnc3)n2-c2ccccc2F)c(C)n1C", "AC50": "5.01 µM [falling, single point]"}
    ]}
  ]
}
